Results are given in words; binding and its absence hold for the method and conditions named. Binding can be weak; no strength is given.
Experiments:
Assay in all cases: two-hybrid; Matchmaker Gold Yeast 2-Hybrid System; Kctd12.1 in pGAD (Gal4 activation domain), Ulk2 fragments in pGBK (Gal4 DNA-binding domain, bait); Y2H Gold yeast; five fold serial dilutions spotted on -LEU -TRP and on -ADE -HIS -LEU -TRP plates; growth after 2-3 days at 30°C
[1] = target: Ulk2 PS domain fragment PS1.4–1.5 (zebrafish (Danio rerio))
[2] = target: Ulk2 PS domain fragment PS-1 (272-401) (zebrafish (Danio rerio))
[3] = target: Ulk2 PS domain fragment PS1.3–1.4 (zebrafish (Danio rerio))

binding [1]: binds | binding [2]: binds | binding [3]: binds
B1: Kctd12.1 (protein, UniProt Q804Q4 1-288)
chain: MALADPECGISNGADSASPFSVIIELNVGGQVYVTRHTTLIAVPDSLLWNMFSKKTPAELARDSKGRFFLDRDGFLFRYILDYLRDLNLVLPDYFPEKSRLQREAEFFQLRDLSKLLSPKMSKDNSITDEICQSDSEEPSASATPVVGPETSRTLSVASSAHSPSLESRKSGYITVGYRGSYTMGRDIQTDAKFRRVARITVCGKTSLAKEVFGDTLNESRDPDRPPERYTSRYYLKYNFLEQAFDKLSEFGFQMVACSSTGTCAYSSSDPNEDKVWTSYTEYVFCRE

Source: article PMC4203773
